{"source": "PubChem BioAssay AID1259254, NCATS | 2017", "purpose": "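Finding genes that stop cells copying their DNA twice in one cycle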 (primary screen)", "cells": "human HCT116 colorectal cancer cells", "reagents": "single siRNA against human genes", "duration": "3 days", "measurement": "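Nuclei stained with Hoechst and imaged; cell-cycle phase assigned by DNA content; G2 share scaled per plate, non-targeting siRNA 0%, GMNN siRNA 100%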", "reading the numbers": "G2 robust z-score: higher = more G2 cells, more excess DNA replication", "active means": "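An siRNA counts as active if its G2 robust z-score lies at least 5 MADs above the screen median; here such calls match roughly 38% of GMNN control or more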", "note": "This is a random part of about 59,000 reagents. Of all reagents, about 1,550 (2.6%) are marked active. 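G2 share is only a proxy for re-replication; each gene was hit by three separate siRNAs, and active genes were retested.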 A number with no mark means an inactive call. Reagents against one gene are numbered here. Not all columns of the deposit are shown. Not stated in the record: the amount of reagent."}
{"Gene":"PHOX2A (paired like homeobox 2A)","reagent no.":1,"G2 robust z-score":0.144}
{"Gene":"PHOX2A (paired like homeobox 2A)","reagent no.":2,"G2 robust z-score":1.81}
{"Gene":"PHOX2A (paired like homeobox 2A)","reagent no.":3,"G2 robust z-score":-0.42}
{"Gene":"ZNF678 (zinc finger protein 678)","reagent no.":1,"G2 robust z-score":0.936}
{"Gene":"ZNF678 (zinc finger protein 678)","reagent no.":2,"G2 robust z-score":-0.293}
{"Gene":"ZNF678 (zinc finger protein 678)","reagent no.":3,"G2 robust z-score":-0.381}
{"Gene":"ENAM (enamelin)","reagent no.":1,"G2 robust z-score":1.18}
{"Gene":"ENAM (enamelin)","reagent no.":2,"G2 robust z-score":0.0521}
{"Gene":"ENAM (enamelin)","reagent no.":3,"G2 robust z-score":-0.101}
{"Gene":"PDZRN4 (PDZ domain containing ring finger 4)","reagent no.":1,"G2 robust z-score":-0.594}
{"Gene":"PDZRN4 (PDZ domain containing ring finger 4)","reagent no.":2,"G2 robust z-score":3.36}
{"Gene":"PDZRN4 (PDZ domain containing ring finger 4)","reagent no.":3,"G2 robust z-score":3.17}

Ordered by “G2 robust z-score” (ascending): some entries from above
{"Gene":"PHOX2A (paired like homeobox 2A)","reagent no.":3,"G2 robust z-score":-0.42}
{"Gene":"PHOX2A (paired like homeobox 2A)","reagent no.":2,"G2 robust z-score":1.81}
